According to paper PMC7935941:
These are yes or no findings as the source states them, for the method shown. Binding can be weak; no strength is given.

Biological target: Protease1(N) (Bacillus amyloliquefaciens)
Assay: crystal structure; Protease1(N) at 12 mg/mL crystallised from 5 mM HEPES pH 7.0, 10 mM azide, 0.53 mM LFRAL pentapeptide; 17 °C; both purified

binding: binds
Binder: LFRAL [LFRAL pentapeptide]
